Measurements reported in PubChem BioAssay AID1671195 (Yale University, 2021)

- Test: 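Regulators of LDL receptor activity judged by labelled LDL uptake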 (primary screen)
- System: human Huh7 hepatoma cells
- Reagent: siRNA pool against human genes, 18 nM
- Duration: about 2 to 2.5 days of knockdown, then 8 h LDL uptake
- Treatment: DiI-labelled LDL at 30 µg/ml for 8 h, in lipoprotein-deficient serum medium
- Measured: 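Fluorescent LDL signal imaged in cells, scaled to the plate median, robust z-score for each replicate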
- Scale: robust z-score: higher = more LDL uptake after knockdown
- Rule for the call: 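Active when two or more replicates show a robust z-score above 2 or below -2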
This is one part, drawn at random, of about 22,000 reagents. Over the whole deposit, about 1,510 (6.9%) were called active. 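Active includes knockdowns raising or lowering LDL uptake; positive z-scores mean more uptake, negative mean less.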 Entries without a mark were called inactive.

The opening 2 records, ahead of the listing:
no.	gene	robust z-score, replicate 1	robust z-score, replicate 2	robust z-score, replicate 3
1	PSD4	0.857	1.52	-0.519
2	DAOA	-0.884	-0.392	-0.507

The listing, repeating the preview:
no.	gene	robust z-score, replicate 1	robust z-score, replicate 2	robust z-score, replicate 3
1	PSD4	0.857	1.52	-0.519
2	DAOA	-0.884	-0.392	-0.507
3	MSTO1	0.375	0.172	1.4
4	DYNC2H1	2.16 (active)	2.61	2.07
5	DCUN1D2	0.894	-1.07	-1.1
6	PDE10A	0.885	-0.69	0.382
7	LOC401957	1.16	1.17	1.14
8	ABCD4	-0.856	-0.759	-0.87
9	HOXD11	1.03	1.39	1.41
10	CLTRN	-1.07	-0.568	-0.636
11	MAL	-0.308	-0.73	-1.32
12	MRO	1.04	0.864	1.42
13	AQR	-1.29	0.279	-0.0232
14	ERVK-6	-0.0793	-0.294	-0.616
15	WDR24	0.14	0.211	-0.324
16	GLCE	-0.0622	0.654	-0.792
17	ZC3H8	-1.94	-1.71	-1.02
18	RBM42	-0.943	-0.559	-0.68
19	CDCA3	1.84	0.94	0.594
20	FAM219A	0.254	0.097	-0.0706
21	HLA-DOA	-0.227	0.128	0.427
22	RPL23AP96	-0.224	-0.894	-0.816
23	PTPN7	2.2	1.63	1.73
24	UBE2E1	0.683	1.45	0.145
25	WDR17	0.64	-0.318	0.522
26	PERP	2.22 (active)	2.35	1.72
27	CTNNA2	-0.0759	0.493	0.746
28	KANSL3	-0.756	-1.05	-0.947
29	DLX2	-2.22 (active)	-1.84	-2.39
30	BBIP1	0.0447	-1.32	-0.701
31	RNPEP	2.01 (active)	1.22	1.99
32	TMEM37	-0.758	-0.652	-1.44
33	LMBR1	-0.381	-0.318	-0.592
34	GSPT1	-0.511	-0.572	-0.472
35	XRN2	-1.26	-1.8	-1.94
36	OR6C74	0.375	-0.0478	0.324
37	KHNYN	-0.647	1.51	-1.61
38	ANKIB1	2.03	0.36	0.33
39	TK1	0.977	1.29	1.38
40	LIMK1	-1.1	-1.66	-1.67
41	RNASEH2B	0.562	0.657	0.981
42	ZFAND6	-1.18	-0.574	-0.224
43	NUTM1	1.14	1.33	0.954
44	SCOC	1.99 (active)	2.31	2.62
45	SLC9A4	1.89	1.19	2.41
46	HRK	0.608	0.132	-0.349
47	GDF7	0.49	0.0356	-0.196
48	MYG1	-0.332	-0.461	-0.808
49	ANKRD7	-1.82	-1.46	-1.9
50	TAFA5-AS1	2.91 (active)	2.83	1.91
51	POLR1H	-1	-1.13	-0.633
52	MAPK8IP3	3.21 (active)	2.54	0.707
53	RAB23	0.00263	-1.46	-1.69
54	SERTAD4	-1.68	-0.443	-1.64
55	ALG6	0.764	2.41	0.842
56	BRIX1	-1.12	-0.589	0.377
57	TMEM235	2.26 (active)	2.13	1.12
58	HP	0.203	1.62	-2.27
59	GRPEL1	-0.913	-0.0719	-0.548
60	HSP90AB1	-0.141	-0.0674	-0.294
61	GNA14	-0.947	-0.693	-0.788
62	PGM2	0.228	0.848	0.33
63	NF2	0.214	1.14	2.56
64	ZFYVE1	-0.777	0.409	-2.05
65	ITIH5	0.568	0.177	0.396
66	NEUROG1	0.142	0.406	1.18
67	ESPNL	0.242	0.376	0.0552
68	NUTF2P4	1.46	2.01	1.82
